According to article PMC8206213, “An L-2-hydroxyglutarate biosensor based on specific transcriptional regulator LhgR” (Nature Communications, 2021):
A unit is not stated for every read-out.

Assay: Emission and excitation spectra of purified LHGFR with or without 100 μM L-2-HG
Assay type: binding
Conditions: for Fluorescence intensity, emission spectrum: Suppl. Fig. 8b

## O=C(O)CC[C@H](O)C(=O)O [L-2-HG, L-2-Hydroxyglutarate]
Emission 462 nm
  Fluorescence intensity, emission spectrum: 30537
Emission 464 nm
  Fluorescence intensity, emission spectrum: 47571
Emission 466 nm
  Fluorescence intensity, emission spectrum: 70414
Emission 468 nm
  Fluorescence intensity, emission spectrum: 114105
Emission 470 nm
  Fluorescence intensity, emission spectrum: 213662
Emission 472 nm
  Fluorescence intensity, emission spectrum: 306222
Emission 474 nm
  Fluorescence intensity, emission spectrum: 432757
Emission 476 nm
  Fluorescence intensity, emission spectrum: 619160
Emission 478 nm
  Fluorescence intensity, emission spectrum: 766537
Emission 480 nm
  Fluorescence intensity, emission spectrum: 951628
Emission 482 nm
  Fluorescence intensity, emission spectrum: 1.14E+06
Emission 484 nm
  Fluorescence intensity, emission spectrum: 1.29E+06
Emission 486 nm
  Fluorescence intensity, emission spectrum: 1.48E+06
Emission 488 nm
  Fluorescence intensity, emission spectrum: 1.66E+06
Emission 490 nm
  Fluorescence intensity, emission spectrum: 1.80E+06
Emission 492 nm
  Fluorescence intensity, emission spectrum: 1.95E+06
Emission 494 nm
  Fluorescence intensity, emission spectrum: 2.01E+06
Emission 496 nm
  Fluorescence intensity, emission spectrum: 2.00E+06
Emission 498 nm
  Fluorescence intensity, emission spectrum: 1.97E+06
Emission 500 nm
  Fluorescence intensity, emission spectrum: 1.92E+06
Emission 502 nm
  Fluorescence intensity, emission spectrum: 1.85E+06
Emission 504 nm
  Fluorescence intensity, emission spectrum: 1.80E+06
Emission 506 nm
  Fluorescence intensity, emission spectrum: 1.75E+06
Emission 508 nm
  Fluorescence intensity, emission spectrum: 1.74E+06
Emission 510 nm
  Fluorescence intensity, emission spectrum: 1.75E+06
Emission 512 nm
  Fluorescence intensity, emission spectrum: 1.80E+06
Emission 514 nm
  Fluorescence intensity, emission spectrum: 1.94E+06
Emission 516 nm
  Fluorescence intensity, emission spectrum: 2.22E+06
Emission 518 nm
  Fluorescence intensity, emission spectrum: 2.55E+06
Emission 520 nm
  Fluorescence intensity, emission spectrum: 2.90E+06
Emission 522 nm
  Fluorescence intensity, emission spectrum: 3.13E+06
Emission 524 nm
  Fluorescence intensity, emission spectrum: 3.36E+06
Emission 526 nm
  Fluorescence intensity, emission spectrum: 3.46E+06
Emission 528 nm
  Fluorescence intensity, emission spectrum: 3.50E+06
Emission 530 nm
  Fluorescence intensity, emission spectrum: 3.47E+06
Emission 532 nm
  Fluorescence intensity, emission spectrum: 3.39E+06
Emission 534 nm
  Fluorescence intensity, emission spectrum: 3.28E+06
Emission 536 nm
  Fluorescence intensity, emission spectrum: 3.09E+06
Emission 538 nm
  Fluorescence intensity, emission spectrum: 2.82E+06
Emission 540 nm
  Fluorescence intensity, emission spectrum: 2.57E+06
Emission 542 nm
  Fluorescence intensity, emission spectrum: 2.23E+06
Emission 544 nm
  Fluorescence intensity, emission spectrum: 2.05E+06
Emission 546 nm
  Fluorescence intensity, emission spectrum: 1.84E+06
Emission 548 nm
  Fluorescence intensity, emission spectrum: 1.69E+06
Emission 550 nm
  Fluorescence intensity, emission spectrum: 1.56E+06
Emission 552 nm
  Fluorescence intensity, emission spectrum: 1.46E+06
Emission 554 nm
  Fluorescence intensity, emission spectrum: 1.36E+06
Emission 556 nm
  Fluorescence intensity, emission spectrum: 1.29E+06
Emission 558 nm
  Fluorescence intensity, emission spectrum: 1.21E+06
Emission 560 nm
  Fluorescence intensity, emission spectrum: 1.14E+06
Emission 562 nm
  Fluorescence intensity, emission spectrum: 1.06E+06
Emission 564 nm
  Fluorescence intensity, emission spectrum: 976950
Emission 566 nm
  Fluorescence intensity, emission spectrum: 905109
Emission 568 nm
  Fluorescence intensity, emission spectrum: 842340
Emission 570 nm
  Fluorescence intensity, emission spectrum: 781562
Emission 572 nm
  Fluorescence intensity, emission spectrum: 730703
Emission 574 nm
  Fluorescence intensity, emission spectrum: 685106
Emission 576 nm
  Fluorescence intensity, emission spectrum: 629037
Emission 578 nm
  Fluorescence intensity, emission spectrum: 595845
Emission 580 nm
  Fluorescence intensity, emission spectrum: 538248
Excitation 380 nm, Suppl. Fig. 8c
  Fluorescence intensity, excitation spectrum: 59827
Excitation 380 nm, Suppl. Fig. 8d
  Fluorescence intensity, excitation spectrum: 67353
Excitation 382 nm, Suppl. Fig. 8c
  Fluorescence intensity, excitation spectrum: 60507
Excitation 382 nm, Suppl. Fig. 8d
  Fluorescence intensity, excitation spectrum: 66949
Excitation 384 nm, Suppl. Fig. 8c
  Fluorescence intensity, excitation spectrum: 64315
Excitation 384 nm, Suppl. Fig. 8d
  Fluorescence intensity, excitation spectrum: 71059
Excitation 386 nm, Suppl. Fig. 8c
  Fluorescence intensity, excitation spectrum: 70309
Excitation 386 nm, Suppl. Fig. 8d
  Fluorescence intensity, excitation spectrum: 79195
Excitation 388 nm, Suppl. Fig. 8c
  Fluorescence intensity, excitation spectrum: 80482
Excitation 388 nm, Suppl. Fig. 8d
  Fluorescence intensity, excitation spectrum: 86523
Excitation 390 nm, Suppl. Fig. 8c
  Fluorescence intensity, excitation spectrum: 85482
Excitation 390 nm, Suppl. Fig. 8d
  Fluorescence intensity, excitation spectrum: 97353
Excitation 392 nm, Suppl. Fig. 8c
  Fluorescence intensity, excitation spectrum: 90882
Excitation 392 nm, Suppl. Fig. 8d
  Fluorescence intensity, excitation spectrum: 97855
Excitation 394 nm, Suppl. Fig. 8c
  Fluorescence intensity, excitation spectrum: 96719
Excitation 394 nm, Suppl. Fig. 8d
  Fluorescence intensity, excitation spectrum: 104593
Excitation 396 nm, Suppl. Fig. 8c
  Fluorescence intensity, excitation spectrum: 99900
Excitation 396 nm, Suppl. Fig. 8d
  Fluorescence intensity, excitation spectrum: 111934
Excitation 398 nm, Suppl. Fig. 8c
  Fluorescence intensity, excitation spectrum: 103880
Excitation 398 nm, Suppl. Fig. 8d
  Fluorescence intensity, excitation spectrum: 116619
Excitation 400 nm, Suppl. Fig. 8c
  Fluorescence intensity, excitation spectrum: 111369
Excitation 400 nm, Suppl. Fig. 8d
  Fluorescence intensity, excitation spectrum: 125092
Excitation 402 nm, Suppl. Fig. 8c
  Fluorescence intensity, excitation spectrum: 121042
Excitation 402 nm, Suppl. Fig. 8d
  Fluorescence intensity, excitation spectrum: 132687
Excitation 404 nm, Suppl. Fig. 8c
  Fluorescence intensity, excitation spectrum: 130382
Excitation 404 nm, Suppl. Fig. 8d
  Fluorescence intensity, excitation spectrum: 143898
Excitation 406 nm, Suppl. Fig. 8c
  Fluorescence intensity, excitation spectrum: 141769
Excitation 406 nm, Suppl. Fig. 8d
  Fluorescence intensity, excitation spectrum: 155785
Excitation 408 nm, Suppl. Fig. 8c
  Fluorescence intensity, excitation spectrum: 161073
Excitation 408 nm, Suppl. Fig. 8d
  Fluorescence intensity, excitation spectrum: 180367
Excitation 410 nm, Suppl. Fig. 8c
  Fluorescence intensity, excitation spectrum: 200905
Excitation 410 nm, Suppl. Fig. 8d
  Fluorescence intensity, excitation spectrum: 221847
Excitation 412 nm, Suppl. Fig. 8c
  Fluorescence intensity, excitation spectrum: 233102
Excitation 412 nm, Suppl. Fig. 8d
  Fluorescence intensity, excitation spectrum: 257316
Excitation 414 nm, Suppl. Fig. 8c
  Fluorescence intensity, excitation spectrum: 260639
Excitation 414 nm, Suppl. Fig. 8d
  Fluorescence intensity, excitation spectrum: 288407
Excitation 416 nm, Suppl. Fig. 8c
  Fluorescence intensity, excitation spectrum: 278365
Excitation 416 nm, Suppl. Fig. 8d
  Fluorescence intensity, excitation spectrum: 304618
Excitation 418 nm, Suppl. Fig. 8c
  Fluorescence intensity, excitation spectrum: 299529
Excitation 418 nm, Suppl. Fig. 8d
  Fluorescence intensity, excitation spectrum: 328450
Excitation 420 nm, Suppl. Fig. 8c
  Fluorescence intensity, excitation spectrum: 311845
Excitation 420 nm, Suppl. Fig. 8d
  Fluorescence intensity, excitation spectrum: 348322
Excitation 422 nm, Suppl. Fig. 8c
  Fluorescence intensity, excitation spectrum: 325972
Excitation 422 nm, Suppl. Fig. 8d
  Fluorescence intensity, excitation spectrum: 363848
Excitation 424 nm, Suppl. Fig. 8c
  Fluorescence intensity, excitation spectrum: 345413
Excitation 424 nm, Suppl. Fig. 8d
  Fluorescence intensity, excitation spectrum: 384528
Excitation 426 nm, Suppl. Fig. 8c
  Fluorescence intensity, excitation spectrum: 362280
Excitation 426 nm, Suppl. Fig. 8d
  Fluorescence intensity, excitation spectrum: 399375
